The experiment addresses endogenous AKT (human (endogenous in HeLa)). In words: co-IP; HeLa cells stably expressing PDK1-IFPC and IFPN-AKT1, lysed in NP40 buffer (Tris-HCl pH 8.0 50 mM, NaCl 150 mM, NP-40 1%); IP with anti-AKT1 or normal IgG, blots with anti-PDK1 and anti-AKT.

No constants are given. Whether binding was seen depends on the method and setting. In cells and extracts the contact can be indirect.

B1: endogenous PDK1 (protein, UniProt O15530 1-556)
chain: MARTTSQLYDAVPIQSSVVLCSCPSPSMVRTQTESSTPPGIPGGSRQGPAMDGTAAEPRPGAGSLQHAQPPPQPRKKRPEDFKFGKILGEGSFSTVVLARELATSREYAIKILEKRHIIKENKVPYVTRERDVMSRLDHPFFVKLYFTFQDDEKLYFGLSYAKNGELLKYIRKIGSFDETCTRFYTAEIVSALEYLHGKGIIHRDLKPENILLNEDMHIQITDFGTAKVLSPESKQARANSFVGTAQYVSPELLTEKSACKSSDLWALGCIIYQLVAGLPPFRAGNEYLIFQKIIKLEYDFPEKFFPKARDLVEKLLVLDATKRLGCEEMEGYGPLKAHPFFESVTWENLHQQTPPKLTAYLPAMSEDDEDCYGNYDNLLSQFGCMQVSSSSSSHSLSASDTGLPQRSGSNIEQYIHDLDSNSFELDLQFSEDEKRLLLEKQAGGNPWHQFVENNLILKMGPVDKRKGLFARRRQLLLTEGPHLYYVDPVNKVLKGEIPWSQELRPEAKNFKTFFVHTPNRTYYLMDPSGNAHKWCRKIQEVWRQRYQSHPDAAVQ
With B1, the binding result is recorded as “no binding”.

These data come from article PMC2845649.
